{
  "sequences": {"note": "Amino acid sequences for entries named in this document (tags omitted). Residues count along the entry.", "UniProt Q9UGN5, 77-220": "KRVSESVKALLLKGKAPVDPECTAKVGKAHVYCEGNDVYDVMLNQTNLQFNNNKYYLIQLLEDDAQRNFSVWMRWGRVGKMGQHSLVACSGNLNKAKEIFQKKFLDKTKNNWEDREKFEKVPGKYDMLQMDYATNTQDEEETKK"},
  "source": "paper PMC12209172",
  "about": "“Poly(ADP-ribose)polymerase 2 is zinc-dependent enzyme and nucleosome reorganizer” (Cellular and Molecular Life Sciences: CMLS, 2025)",
  "target": "T1, WGR domain of PARP2 (Homo sapiens, UniProt Q9UGN5)",
  "T1 construct": "WGR domain of PARP2 (residues 77–220) into pET-15b-TEV expression vector; 6xHis (pET-15b-TEV) (N, cleaved yes); made in house; host or cells: Escherichia coli Rosetta2 (DE3) pLysS",
  "assay": "Tryptophan fluorescence spectroscopy of the WGR domain titrated with divalent cations (one site binding fit)",
  "conditions": "listed as Zn",
  "description": "Fluorescence spectra of Trp residues were measured in the 300–450 nm spectral range at the 270 nm excitation wavelengths using the Cary Eclipse spectrofluorometer (Varian/Agilent, USA).\nFluorescence of WGR domain was measured at 0.5 or 5 µM in a buffer containing 10 mM HEPES (pH 8.0), 150 mM NaCl and 0.73 or 7.3 µM EDTA, respectively. Solutions were complemented with ZnCl2 (0.2–308 µM) or MgCl2 (15–5000 µM), or CaCl2 (8–5000 µM) dissolved in a buffer containing 10 mM HEPES (pH 8.0), 150 mM NaCl. Intensity of the measured spectra was corrected for the concomitant dilution of the WGR domain. Integral intensities (Ifl.) of fluorescence spectra were averaged over three independent measurements (mean ± SEM) and used to plot the corresponding Ifl. vs. ion concentration graphs. Data were fitted with the one site binding equation:2 [drawing 2]\nWhere C is the concentration of divalent cations, Kd is a dissociation constant of the complex, Im and Ifl0 are maximal and initial values of Ifl., respectively.",
  "note": "“And” between values parts separate entries of the source, which are not always exact repeats. Equal values may be shown once. Further values from the same series stand in other lists.",
  "data": [
    {"smiles": "[Cl-].[Cl-].[Zn+2]", "note": "[Zn2+, ZnCl2]", "values": [
      {"measurement": "fluorescence intensity (Fig 3d)", "setting": "wavelength 354.000, 5.9 uM Zn", "value": "67.285 and 76.342 and 93.665 and 74.817"},
      {"measurement": "fluorescence intensity (Fig 3d)", "setting": "wavelength 354.000, 11.6 uM Zn", "value": "128.158 and 111.185 and 111.648 and 117.492"},
      {"measurement": "fluorescence intensity (Fig 3d)", "setting": "wavelength 354.000, 17.2 uM", "value": "133.640 and 124.345 and 123.362 and 123.223"},
      {"measurement": "fluorescence intensity (Fig 3d)", "setting": "wavelength 354.000, 22.1 uM", "value": "136.574 and 123.971 and 125.419 and 125.826"},
      {"measurement": "fluorescence intensity (Fig 3d)", "setting": "wavelength 354.000, 303 uM + 7 mM EDTA", "value": "44.501 and 55.593 and 44.456 and 53.696"},
      {"measurement": "fluorescence intensity (Fig 3d)", "setting": "wavelength 354.000, 308 uM", "value": "135.412 and 130.314 and 129.599 and 123.811"},
      {"measurement": "fluorescence intensity (Fig 3d)", "setting": "wavelength 355.070, 5.9 uM Zn", "value": "65.935 and 74.680 and 92.139 and 72.754"},
      {"measurement": "fluorescence intensity (Fig 3d)", "setting": "wavelength 355.070, 11.6 uM Zn", "value": "124.647 and 109.093 and 108.771 and 115.370"},
      {"measurement": "fluorescence intensity (Fig 3d)", "setting": "wavelength 355.070, 17.2 uM", "value": "134.100 and 122.448 and 122.181 and 121.920"},
      {"measurement": "fluorescence intensity (Fig 3d)", "setting": "wavelength 355.070, 22.1 uM", "value": "133.788 and 122.906 and 122.440 and 122.888"},
      {"measurement": "fluorescence intensity (Fig 3d)", "setting": "wavelength 355.070, 303 uM + 7 mM EDTA", "value": "42.180 and 55.172 and 43.393 and 52.995"},
      {"measurement": "fluorescence intensity (Fig 3d)", "setting": "wavelength 355.070, 308 uM", "value": "132.870 and 126.269 and 126.212 and 122.072"},
      {"measurement": "fluorescence intensity (Fig 3d)", "setting": "wavelength 356.000, 5.9 uM Zn", "value": "64.907 and 74.547 and 90.639 and 72.667"},
      {"measurement": "fluorescence intensity (Fig 3d)", "setting": "wavelength 356.000, 11.6 uM Zn", "value": "122.988 and 108.229 and 108.188 and 114.548"},
      {"measurement": "fluorescence intensity (Fig 3d)", "setting": "wavelength 356.000, 17.2 uM", "value": "131.057 and 121.289 and 121.206 and 119.668"},
      {"measurement": "fluorescence intensity (Fig 3d)", "setting": "wavelength 356.000, 22.1 uM", "value": "132.012 and 119.749 and 121.562 and 123.282"},
      {"measurement": "fluorescence intensity (Fig 3d)", "setting": "wavelength 356.000, 303 uM + 7 mM EDTA", "value": "42.285 and 53.604 and 43.025 and 52.086"},
      {"measurement": "fluorescence intensity (Fig 3d)", "setting": "wavelength 356.000, 308 uM", "value": "129.933 and 126.006 and 124.687 and 122.196"},
      {"measurement": "fluorescence intensity (Fig 3d)", "setting": "wavelength 357.070, 5.9 uM Zn", "value": "64.114 and 72.196 and 88.731 and 69.739"},
      {"measurement": "fluorescence intensity (Fig 3d)", "setting": "wavelength 357.070, 11.6 uM Zn", "value": "123.122 and 106.392 and 106.096 and 113.312"},
      {"measurement": "fluorescence intensity (Fig 3d)", "setting": "wavelength 357.070, 17.2 uM", "value": "130.148 and 119.457 and 119.526 and 117.712"},
      {"measurement": "fluorescence intensity (Fig 3d)", "setting": "wavelength 357.070, 22.1 uM", "value": "131.312 and 119.419 and 120.483 and 119.148"},
      {"measurement": "fluorescence intensity (Fig 3d)", "setting": "wavelength 357.070, 303 uM + 7 mM EDTA", "value": "41.716 and 52.477 and 42.546 and 51.546"},
      {"measurement": "fluorescence intensity (Fig 3d)", "setting": "wavelength 357.070, 308 uM", "value": "128.314 and 123.632 and 122.132 and 121.183"},
      {"measurement": "fluorescence intensity (Fig 3d)", "setting": "wavelength 358.000, 5.9 uM Zn", "value": "63.157 and 72.021 and 88.099 and 69.266"},
      {"measurement": "fluorescence intensity (Fig 3d)", "setting": "wavelength 358.000, 11.6 uM Zn", "value": "120.165 and 104.067 and 105.092 and 110.586"},
      {"measurement": "fluorescence intensity (Fig 3d)", "setting": "wavelength 358.000, 17.2 uM", "value": "127.935 and 116.823 and 116.491 and 115.456"},
      {"measurement": "fluorescence intensity (Fig 3d)", "setting": "wavelength 358.000, 22.1 uM", "value": "129.697 and 118.502 and 117.563 and 117.664"},
      {"measurement": "fluorescence intensity (Fig 3d)", "setting": "wavelength 358.000, 303 uM + 7 mM EDTA", "value": "40.855 and 51.601 and 41.681 and 50.945"},
      {"measurement": "fluorescence intensity (Fig 3d)", "setting": "wavelength 358.000, 308 uM", "value": "126.335 and 120.305 and 121.465 and 117.345"},
      {"measurement": "fluorescence intensity (Fig 3d)", "setting": "wavelength 359.070, 5.9 uM Zn", "value": "62.278 and 70.830 and 86.329 and 68.361"},
      {"measurement": "fluorescence intensity (Fig 3d)", "setting": "wavelength 359.070, 11.6 uM Zn", "value": "119.231 and 104.405 and 103.692 and 108.979"},
      {"measurement": "fluorescence intensity (Fig 3d)", "setting": "wavelength 359.070, 17.2 uM", "value": "125.377 and 116.003 and 114.866 and 114.647"},
      {"measurement": "fluorescence intensity (Fig 3d)", "setting": "wavelength 359.070, 22.1 uM", "value": "125.510 and 115.026 and 117.050 and 116.523"},
      {"measurement": "fluorescence intensity (Fig 3d)", "setting": "wavelength 359.070, 303 uM + 7 mM EDTA", "value": "40.858 and 51.293 and 41.485 and 49.674"},
      {"measurement": "fluorescence intensity (Fig 3d)", "setting": "wavelength 359.070, 308 uM", "value": "124.778 and 116.949 and 118.426 and 115.904"},
      {"measurement": "fluorescence intensity (Fig 3d)", "setting": "wavelength 360.000, 5.9 uM Zn", "value": "61.254 and 69.823 and 84.544 and 66.502"},
      {"measurement": "fluorescence intensity (Fig 3d)", "setting": "wavelength 360.000, 11.6 uM Zn", "value": "117.057 and 100.255 and 101.019 and 105.573"},
      {"measurement": "fluorescence intensity (Fig 3d)", "setting": "wavelength 360.000, 17.2 uM", "value": "123.352 and 114.211 and 114.005 and 112.097"},
      {"measurement": "fluorescence intensity (Fig 3d)", "setting": "wavelength 360.000, 22.1 uM", "value": "123.035 and 111.852 and 114.429 and 112.753"},
      {"measurement": "fluorescence intensity (Fig 3d)", "setting": "wavelength 360.000, 303 uM + 7 mM EDTA", "value": "39.669 and 50.425 and 40.528 and 48.947"},
      {"measurement": "fluorescence intensity (Fig 3d)", "setting": "wavelength 360.000, 308 uM", "value": "121.609 and 115.733 and 116.350 and 113.134"},
      {"measurement": "fluorescence intensity (Fig 3d)", "setting": "wavelength 361.070, 5.9 uM Zn", "value": "59.131 and 68.253 and 82.430 and 64.951"},
      {"measurement": "fluorescence intensity (Fig 3d)", "setting": "wavelength 361.070, 11.6 uM Zn", "value": "114.046 and 98.566 and 99.036 and 105.396"},
      {"measurement": "fluorescence intensity (Fig 3d)", "setting": "wavelength 361.070, 17.2 uM", "value": "120.461 and 110.090 and 110.969 and 109.973"},
      {"measurement": "fluorescence intensity (Fig 3d)", "setting": "wavelength 361.070, 22.1 uM", "value": "121.524 and 109.505 and 110.838 and 110.734"},
      {"measurement": "fluorescence intensity (Fig 3d)", "setting": "wavelength 361.070, 303 uM + 7 mM EDTA", "value": "38.187 and 49.332 and 39.428 and 48.013"},
      {"measurement": "fluorescence intensity (Fig 3d)", "setting": "wavelength 361.070, 308 uM", "value": "118.289 and 112.479 and 113.917 and 110.987"},
      {"measurement": "fluorescence intensity (Fig 3d)", "setting": "wavelength 362.000, 5.9 uM Zn", "value": "58.264 and 66.735 and 80.884 and 63.696"},
      {"measurement": "fluorescence intensity (Fig 3d)", "setting": "wavelength 362.000, 11.6 uM Zn", "value": "112.097 and 97.087 and 96.457 and 101.954"},
      {"measurement": "fluorescence intensity (Fig 3d)", "setting": "wavelength 362.000, 17.2 uM", "value": "117.941 and 108.915 and 110.053 and 108.113"},
      {"measurement": "fluorescence intensity (Fig 3d)", "setting": "wavelength 362.000, 22.1 uM", "value": "118.341 and 109.078 and 108.775 and 108.785"},
      {"measurement": "fluorescence intensity (Fig 3d)", "setting": "wavelength 362.000, 303 uM + 7 mM EDTA", "value": "38.449 and 48.285 and 37.988 and 47.341"},
      {"measurement": "fluorescence intensity (Fig 3d)", "setting": "wavelength 362.000, 308 uM", "value": "117.095 and 112.475 and 111.657 and 109.754"},
      {"measurement": "fluorescence intensity (Fig 3d)", "setting": "wavelength 363.070, 5.9 uM Zn", "value": "57.594 and 64.746 and 79.909 and 62.129"},
      {"measurement": "fluorescence intensity (Fig 3d)", "setting": "wavelength 363.070, 11.6 uM Zn", "value": "108.644 and 94.057 and 94.934 and 99.988"},
      {"measurement": "fluorescence intensity (Fig 3d)", "setting": "wavelength 363.070, 17.2 uM", "value": "116.250 and 107.112 and 107.532 and 105.901"},
      {"measurement": "fluorescence intensity (Fig 3d)", "setting": "wavelength 363.070, 22.1 uM", "value": "117.573 and 106.408 and 107.151 and 106.670"},
      {"measurement": "fluorescence intensity (Fig 3d)", "setting": "wavelength 363.070, 303 uM + 7 mM EDTA", "value": "36.953 and 47.216 and 38.073 and 46.071"},
      {"measurement": "fluorescence intensity (Fig 3d)", "setting": "wavelength 363.070, 308 uM", "value": "112.775 and 108.426 and 109.036 and 107.052"}
    ]}
  ]
}
